Experimental data: PubChem BioAssay AID686943 (Drosophila RNAi Screening Center, 2013)
The deposit covers about 23,000 reagents; shown is an unselected part of those that have a named target and a result. 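Extra replicates exist only for a retested subset of genes; insulin dose and duration not given; both raised and lowered dpERK matter.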 Reagents against one gene are numbered here. Names joined by + are all predicted targets of the reagent. Further read-outs or replicates are left out here. Reagent sequences are not shown. Not stated in the record: the amount of reagent, the time to read-out.

Test: 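Fly genes whose loss alters ERK activation after insulin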 (primary screen)
Cell system: Drosophila S2R+ haemocyte-like cells expressing YFP-tagged ERK (Rolled)
Knock-down reagent: long dsRNA against Drosophila genes
Conditions: insulin stimulation versus unstimulated cells; dose and duration not given
Read-out: 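Per-plate z-scores of phospho-ERK immunostaining normalised to YFP-tagged ERK, measured with and without insulin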
Reading the numbers: replicate 1, z-score of dpERK with insulin: higher = more active ERK per ERK-YFP after insulin

replicate 1, z-score of dpERK with insulin, by gene and reagent
CG7639: #1 0.27
CG13300: #1 0.26
Ptp69D: #1 -0.32
CG42493: #1 -0.29
Mms19: #1 0.32
Nacalpha: #1 -0.37
Muc68Ca: #1 -0.24; #2 0.94
Lectin-galC1: #1 -0.31
Dh44-R2: #1 -0.03; #2 -0.21
CG13841: #1 -1.81
stck: #1 0.24
Acp53C14b: #1 -0.79
CG5262: #1 -0.5
CG2767: #1 -0.38
CG15212: #1 0.34
CG4476: #1 -0.5
lectin-24Db: #1 -0.06
CG13438: #1 -0.88

Entries listed so far whose gene name starts with L or l:
replicate 1, z-score of dpERK with insulin, by gene and reagent
Lectin-galC1: #1 -0.31
lectin-24Db: #1 -0.06

Continued.
replicate 1, z-score of dpERK with insulin, by gene and reagent
Mob2: #1 -0.58; #2 0.82; #3 0.74
Mpcp2: #1 0.78
lute: #1 -0.92; #2 0.09
Pp1alpha-96A: #1 -0.03
CG11523: #1 -0.05
CG42367: #1 -0.62
Alg10: #1 -0.02
CG33725: #1 0.29
Obp57c + Obp57b: #1 0.05
CG14153: #1 0.63; #2 0.62
CG4306: #1 0.17
CG34144 (retired record): #1 -1.14; #2 1.05; #3 -2.11
CG5773: #1 -3.81
